Results are given in words; binding and its absence hold for the method and conditions named. Some entries that bind do so weakly or less than the wild type.
Target: VEGFR2 (UniProt P35968)
Experiment: phage display selection

Amino acid sequences for entries named in this document (tags omitted). Residues count along the entry.
UniProt P35968, residues 20-764: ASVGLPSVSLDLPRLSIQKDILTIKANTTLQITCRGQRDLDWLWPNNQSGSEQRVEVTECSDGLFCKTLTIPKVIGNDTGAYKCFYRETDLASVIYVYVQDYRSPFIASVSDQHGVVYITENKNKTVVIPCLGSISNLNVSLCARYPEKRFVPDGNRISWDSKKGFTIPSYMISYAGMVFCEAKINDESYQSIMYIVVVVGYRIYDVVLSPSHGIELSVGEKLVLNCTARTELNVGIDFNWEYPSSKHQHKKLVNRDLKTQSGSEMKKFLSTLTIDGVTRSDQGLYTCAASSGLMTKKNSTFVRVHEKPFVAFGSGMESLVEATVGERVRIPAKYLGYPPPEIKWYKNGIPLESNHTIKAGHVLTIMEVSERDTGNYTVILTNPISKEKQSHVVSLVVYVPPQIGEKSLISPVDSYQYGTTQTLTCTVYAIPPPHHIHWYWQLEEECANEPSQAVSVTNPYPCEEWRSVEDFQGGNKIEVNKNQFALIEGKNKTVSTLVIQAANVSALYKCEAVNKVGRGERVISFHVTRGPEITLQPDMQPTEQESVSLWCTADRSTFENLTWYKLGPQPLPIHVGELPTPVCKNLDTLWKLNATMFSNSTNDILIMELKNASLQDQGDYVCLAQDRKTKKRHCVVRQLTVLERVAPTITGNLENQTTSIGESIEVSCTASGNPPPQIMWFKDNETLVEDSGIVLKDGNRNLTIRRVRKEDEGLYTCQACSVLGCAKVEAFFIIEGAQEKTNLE

| Binder | binding |
| --- | --- |
| SEQ ID NO 294 (designed binder) NVSPPRRARVTDATETTITIRWSTPAYAGGGEVPSFQVDAVPANGQTPIQRTINADVSTYTITGLQPGTDYKIYLYTLNDNARSSPVVIDAST | binds |
| SEQ ID NO 296 (designed binder) NVSPPRRARVTDATETTITIRWQLPIRADSAIPSFQVDAVPANGQTPIQRTINADISTYTITGLQPGTDYKIYLYTLNDNARSSPVVIDAST | binds |
| SEQ ID NO 297 (designed binder) NVSPPRRARVTDATETTITIRWRTPADTGGAGIPSFQVDAVPANGQTPIQRTIHADVSTYTITGLQPGTDYKIYLYTLNDNARSSPVVIDAST | binds |
| SEQ ID NO 298 (designed binder) NVSPPRRARVTDATETTITIRWAQGGNGSGVIPSFQVDAVPANGQTPIQRTINADVSTYTITGLQPGTDYKIYLYTLNDNARSSPVVIDAST | binds |
| SEQ ID NO 299 (designed binder) NVSPPRRARVTDATETTITIRWELGSDRDSEVPSFQVDAVPANGQTPIQRTINADISTYTITGLQPGTDYKIYLYTLNDNARSSPVVIDAST | binds |
| SEQ ID NO 300 (designed binder) NVSPPRRARVTDATETTITIRWKAPIDNGGSTVPGFQVDAVPANGQTPIQRTINADTSTYTITGLQPGTDYKIYLYTLNDNARSSPVVIDAST | binds |
| SEQ ID NO 301 (designed binder) NVSPPRRARVTDATETTITIRWEQPVHPNSLIPSFQVDAVPANGQTPIQRTINADVSTYTITGLQPGTDYKIYLYTLNDNARSSPVVIDAST | binds |
| SEQ ID NO 302 (designed binder) NVSPPRRARVTDATETTITIRWEVPNKGGSQLLSFQVDAVPANGQTPIQRTINATTNVYTITGLQPGTDYKIYLYTLNDNARSSPVVIDAST | binds |
| SEQ ID NO 303 (designed binder) NVSPPRRARVTDATETTITIRWTVPEGGDSIVPSFQVDAVPANGQTPIQRTINADVSTYTITGLQPGTDYKIYLYTLNDNARSSPVVIDAST | binds |
| SEQ ID NO 304 (designed binder) NVSPPRRARVTDATETTITIRWAPGEERGSVVPSFQVDAVPANGQTPIQRTINADTSTYTITGLQPGTDYKIYLYTLNDNARSSPVVIDAST | binds |
| SEQ ID NO 305 (designed binder) NVSPPRRARVTDATETTITIRWTVPEERDGVIPGFQVDAVPANGQTPIQRTINADISTYTITGLQPGTDYKIYLYTLNDNARSSPVVIDAST | binds |
| SEQ ID NO 306 (designed binder) NVSPPRRARVTDATETTITIRWQAPDDGDGVVPGFQVDAVPANGQTPIQRTINADTNTYTITGLQPGTDYKIYLYTLNDNARSSPVVIDAST | binds |
| SEQ ID NO 307 (designed binder) NVSPPRRARVTDATETTITIRWTVPVHGSSVIPSFQVDAVPANGQTPIQRTINADVSTYTITGLQPGTDYKIYLYTLNDNARSSPVVIDAST | binds |
| SEQ ID NO 308 (designed binder) NVSPPRRARVTDATETTITISWRTKTETITGFQVDAVPANGQTPIQRTIDTSANSYTITGLQPGTDYKIYLYTLNEYGDSNFTQLTGVIDAST | binds |
| SEQ ID NO 309 (designed binder) NVSPPRRARVTDATETTITIRWKVAGSQFTSFQVDAVPANGQTPIQRTINAATTTYTITGLQPGTDYKIYLYTLNDNARSSPVVIDAST | binds |
| SEQ ID NO 310 (designed binder) NVSPPRRARVTDATETTITIRWKLPSHPSSVVLGFQVDAVPANGQTPIQRTINATVSTYTITGLQPGTDYKIYLYTLNDNARSSPVVIDAST | binds |
| SEQ ID NO 311 (designed binder) NVSPPRRARVTDATETTITIRWKQPIHADSILLSFQVDAVPANGQTPIQRTINASTNIYTITGLQPGTDYKIYLYTLNDNARSSPVVIDAST | binds |

Second part, the binder after the results:

| binding | Binder |
| --- | --- |
| binds | SEQ ID NO 312 (designed binder) NVSPPRRARVTDATETTITIRWNTPGDAGGSTVPGFQVDAVPANGQTPIQRTINADISTYTITGLQPGTDYKIYLYTLNDNARSSPVVIDAST |
| binds | SEQ ID NO 313 (designed binder) NVSPPRRARVTDATETTITIRWRAARSQFGFQVDAVPANGQTPIQRTIHADASTYTITGLQPGTDYKIYLYTLNDNARSSPVVIDAST |
| binds | SEQ ID NO 315 (designed binder) NVSPPRRARVTDATETTITIRWQLGVGPGGTIPGFQVDAVPANGQTPIQRTINADISTYTITGLQPGTDYKIYLYTLNDNARSSPVVIDAST |
| binds | SEQ ID NO 316 (designed binder) NVSPPRRARVTDATETTITIRWGAPEDDGGGEVPGFQVDAVPANGQTPIQRTINADVSTYTITGLQPGTDYKIYLYTLNDNARSSPVVIDAST |
| binds | SEQ ID NO 317 (designed binder) NVSPPRRARVTDATETTITIRWELPIQRSSLIPGFQVDAVPANGQTPIQRTINADVSTYTITGLQPGTDYKIYLYTLNDNARSSPVVIDAST |
| binds | SEQ ID NO 318 (designed binder) NVSPPRRARVTDATETTITIRWQQGEEGGGVVPGFQVDAVPANGQTPIQRTINADTSTYTITGLQPGTDYKIYLYTLNDNARSSPVVIDAST |
| binds | SEQ ID NO 319 (designed binder) NVSPPRRARVTDATETTITIRWGQPAYDGGSEVPGFQVDAVPANGQTPIQRTINADISTYTITGLQPGTDYKIYLYTLNDNARSSPVVIDAST |
| binds | SEQ ID NO 321 (designed binder) NVSPPRRARVTDATETTITIRWEVAESAFDSFQVDAVPANGQTPIQRTINAATTTYTITGLQPGTDYKIYLYTLNDNARSSPVVIDAST |
| binds | SEQ ID NO 322 (designed binder) NVSPPRRARVTDATETTITIRWERSQGQFDGFQVDAVPANGQTPIQRTINADTNVYTITGLQPGTDYKIYLYTLNDNARSSPVVIDAST |
| binds | SEQ ID NO 324 (designed binder) NVSPPRRARVTDATETTITIRWTVSGSPFDGFQVDAVPANGQTPIQRTIHADTTVYTITGLQPGTDYKIYLYTLNDNARSSPVVIDAST |
| binds | SEQ ID NO 325 (designed binder) NVSPPRRARVTDATETTITIRWTVSASEFDSFQVDAVPANGQTPIQRTIHATTTTYTITGLQPGTDYKIYLYTLNDNARSSPVVIDAST |
